# According to article PMC10227054:
# No constants are given. Whether binding was seen depends on the method and setting. Binding can be weak; no strength is given. Sequences can lack the tags named with a protein. For some of these results: Binding seen in cells or lysates may run through a third protein.
# Key:
# [1] = target: T1, Gst-CLCA (clathrin light chain A) (UniProt O08585); experiment: pull-down; lysates of HEK293T cells transfected for 48 h with HA-tagged Otof-C or Otof-S, pulled down with purified GST-tagged bait; immunoblot with antibodies against HA and GST; also tested at different Ca2+ concentrations (Supplementary Fig. 9); only the target purified
# T1 sequence: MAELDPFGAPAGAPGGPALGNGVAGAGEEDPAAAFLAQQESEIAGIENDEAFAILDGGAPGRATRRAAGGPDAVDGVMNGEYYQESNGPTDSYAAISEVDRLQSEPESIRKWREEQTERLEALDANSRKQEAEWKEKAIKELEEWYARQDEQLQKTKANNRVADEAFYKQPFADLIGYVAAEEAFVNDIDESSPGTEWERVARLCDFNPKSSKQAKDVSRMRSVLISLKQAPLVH
# [2] = target: T1, Gst-CLCA (clathrin light chain A); experiment: pull-down; GST-tagged bait on glutathione-Sepharose incubated with purified His6-tagged otoferlin fragments, 4 h at 4 °C, 20 mM Tris-Cl, 100 mM NaCl, 5 mM MgCl2, 1 mM EDTA, 1 mM DTT, 0.5% NP-40, pH 7.6; Coomassie gel and immunoblot against His; with calcium: 20 mM Tris-Cl, 100 mM NaCl, pH 7.6 at different calcium concentrations; both purified
binding [1],binding [2],Substance
binds,–,"otoferlin canonical isoform (Otof-C), HA-tagged (mouse)"
–,binds,otoferlin fragment C2A (1-192 AA) (mouse) (domain or fragment)
–,binds,otoferlin fragment C2ABC (1-616 AA) (mouse) (domain or fragment)
–,binds,otoferlin fragment C2BC (193-616 AA) (mouse) (domain or fragment)
